Further values from the same series stand in other lists.
System: PRISM DNA-barcoded human tumour cell lines
Experiment: PRISM pooled cell viability assay;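 also: 8 threefold dilutions from 10 µM with 5 days of exposure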
Format: cell-based
Design: Area under the curve (AUC): scale not given here
Conditions: for PRISM AUC: KRAS MUT
Description: Cells were then lysed in TCL mRNA lysis buffer, and then PCR with reverse transcription was performed. Detection of the barcodes and univariate and multivariate analysis was then performed as previously described. Data analysis is described in the Supplementary Methods. Up-to-date code for our analysis is at the github link: https://github.com/cmap/dockerized_mts.
For every gene with non-silent mutations in at least four cell-lines, we compared the AUC values between cells with and without those mutations using a t-test. This analysis was carried out for: (i) the full dataset; (ii) excluding cell lines with non-silent KRAS mutations; and (iii) excluding cell lines that have either KRAS or NRAS non-silent mutations.

SMILES: CCn1c(-c2cc(N3CCN(C4CC4)CC3)cnc2[C@H](C)OC)c2c3cc(ccc31)-c1csc(n1)C[C@H](NC(=O)[C@H]1[C@@H]3COC[C@@H]31)C(=O)N1CCC[C@H](N1)C(=O)OCC(C)(C)C2 [RMC-7977]
- Area under the curve (AUC) (SKNDZ_AUTONOMIC_GANGLIA): 0.8385
- Area under the curve (AUC) (SKNEP1_BONE): 0.8198
- Area under the curve (AUC) (SKNFI_AUTONOMIC_GANGLIA): 0.8251
- Area under the curve (AUC) (SKNMC_BONE): 0.8161
- Area under the curve (AUC) (SKNO1_HAEMATOPOIETIC_AND_LYMPHOID_TISSUE): 0.6183
- Area under the curve (AUC) (SKN_ENDOMETRIUM): 0.6569
- Area under the curve (AUC) (SKOV3_OVARY): 0.8776
- Area under the curve (AUC) (SKPNDW_BONE): 0.7673
- Area under the curve (AUC) (SKUT1_SOFT_TISSUE): 0.8815
- Area under the curve (AUC) (SMSCTR_SOFT_TISSUE): 0.4961
- Area under the curve (AUC) (SNB75_CENTRAL_NERVOUS_SYSTEM): 0.694
- Area under the curve (AUC) (SNGM_ENDOMETRIUM): 0.6851
- Area under the curve (AUC) (SNU1_STOMACH): 0.5767
- Area under the curve (AUC) (SNU46_UPPER_AERODIGESTIVE_TRACT): 0.6553
- Area under the curve (AUC) (SNU61_LARGE_INTESTINE): 0.3873
- Area under the curve (AUC) (SNU81_LARGE_INTESTINE): 0.7559
- PRISM AUC (SNU81_LARGE_INTESTINE): 0.6432
- Area under the curve (AUC) (SNU119_OVARY): 0.739
- Area under the curve (AUC) (SNU182_LIVER): 1
- Area under the curve (AUC) (SNU201_CENTRAL_NERVOUS_SYSTEM): 0.8331
- Area under the curve (AUC) (SNU213_PANCREAS): 0.3984
- Area under the curve (AUC) (SNU216_STOMACH): 0.6411
- Area under the curve (AUC) (SNU245_BILIARY_TRACT): 0.7593
- Area under the curve (AUC) (SNU308_BILIARY_TRACT): 0.6306
- Area under the curve (AUC) (SNU398_LIVER): 1
- Area under the curve (AUC) (SNU407_LARGE_INTESTINE): 0.6585
- Area under the curve (AUC) (SNU410_PANCREAS): 0.7436
- Area under the curve (AUC) (SNU423_LIVER): 0.737
- Area under the curve (AUC) (SNU449_LIVER): 0.8586
- Area under the curve (AUC) (SNU466_CENTRAL_NERVOUS_SYSTEM): 0.5354
- Area under the curve (AUC) (SNU489_CENTRAL_NERVOUS_SYSTEM): 0.785
- Area under the curve (AUC) (SNU601_STOMACH): 0.5691
- Area under the curve (AUC) (SNU638_STOMACH): 0.6681
- Area under the curve (AUC) (SNU668_STOMACH): 0.6545
- PRISM AUC (SNU668_STOMACH): 0.3673
- Area under the curve (AUC) (SNU685_ENDOMETRIUM): 0.8566
- Area under the curve (AUC) (SNU719_STOMACH): 0.5396
- Area under the curve (AUC) (SNU761_LIVER): 0.9916
- Area under the curve (AUC) (SNU840_OVARY): 0.5807
- Area under the curve (AUC) (SNU869_BILIARY_TRACT): 0.586
- Area under the curve (AUC) (SNU878_LIVER): 0.7474
- Area under the curve (AUC) (SNU886_LIVER): 0.6111
- Area under the curve (AUC) (SNU899_UPPER_AERODIGESTIVE_TRACT): 0.3497
- Area under the curve (AUC) (SNU1041_UPPER_AERODIGESTIVE_TRACT): 0.5448
- Area under the curve (AUC) (SNU1066_UPPER_AERODIGESTIVE_TRACT): 0.6233
- Area under the curve (AUC) (SNU1076_UPPER_AERODIGESTIVE_TRACT): 0.4828
- Area under the curve (AUC) (SNU1077_ENDOMETRIUM): 0.8899
- Area under the curve (AUC) (SNU1079_BILIARY_TRACT): 0.9007
- Area under the curve (AUC) (SNU1105_CENTRAL_NERVOUS_SYSTEM): 0.6758
- Area under the curve (AUC) (SNU1196_BILIARY_TRACT): 0.9396
- Area under the curve (AUC) (SNU1214_UPPER_AERODIGESTIVE_TRACT): 0.4569
- Area under the curve (AUC) (SNU1544_LARGE_INTESTINE): 0.6554
- Area under the curve (AUC) (SNU2372_BREAST): 0.9941
- Area under the curve (AUC) (SNUC2A_LARGE_INTESTINE): 0.9585
- Area under the curve (AUC) (SNUC4_LARGE_INTESTINE): 0.7966
- Area under the curve (AUC) (SQ1_LUNG): 0.584
- Area under the curve (AUC) (SR786_HAEMATOPOIETIC_AND_LYMPHOID_TISSUE): 0.6924
- Area under the curve (AUC) (SSP25_BILIARY_TRACT): 0.8438
- Area under the curve (AUC) (STM9101_SOFT_TISSUE): 0.9549
- Area under the curve (AUC) (SUDHL1_HAEMATOPOIETIC_AND_LYMPHOID_TISSUE): 0.4461
- Area under the curve (AUC) (SUDHL4_HAEMATOPOIETIC_AND_LYMPHOID_TISSUE): 0.7862
- Area under the curve (AUC) (SUDHL8_HAEMATOPOIETIC_AND_LYMPHOID_TISSUE): 0.977
- Area under the curve (AUC) (SUIT2_PANCREAS): 0.7945
- Area under the curve (AUC) (SUM149PT_BREAST): 0.4921
- Area under the curve (AUC) (SUM159PT_BREAST): 0.7529
- Area under the curve (AUC) (SUPB15_HAEMATOPOIETIC_AND_LYMPHOID_TISSUE): 0.6409
- Area under the curve (AUC) (SUPT11_HAEMATOPOIETIC_AND_LYMPHOID_TISSUE): 0.9799
- Area under the curve (AUC) (SUSA_TESTIS): 0.5526
- Area under the curve (AUC) (SW13_ADRENAL_CORTEX): 0.6974
- Area under the curve (AUC) (SW156_KIDNEY): 0.986
- Area under the curve (AUC) (SW480_LARGE_INTESTINE): 0.4468
- Area under the curve (AUC) (SW620_LARGE_INTESTINE): 0.3266
- Area under the curve (AUC) (SW626_LARGE_INTESTINE): 0.3595
- Area under the curve (AUC) (SW756_CERVIX): 0.4462
- Area under the curve (AUC) (SW780_URINARY_TRACT): 0.6339
- Area under the curve (AUC) (SW837_LARGE_INTESTINE): 0.6779
- PRISM AUC (SW837_LARGE_INTESTINE): 0.5067
- Area under the curve (AUC) (SW900_LUNG): 0.55
- Area under the curve (AUC) (SW948_LARGE_INTESTINE): 0.498
- PRISM AUC (SW948_LARGE_INTESTINE): 0.2935
- Area under the curve (AUC) (SW954_CERVIX): 0.5286
- Area under the curve (AUC) (SW1088_CENTRAL_NERVOUS_SYSTEM): 0.6827
- Area under the curve (AUC) (SW1116_LARGE_INTESTINE): 0.8027
- PRISM AUC (SW1116_LARGE_INTESTINE): 0.4782
- Area under the curve (AUC) (SW1271_LUNG): 0.6501
- Area under the curve (AUC) (SW1353_BONE): 0.8863
- Area under the curve (AUC) (SW1463_LARGE_INTESTINE): 0.4218
- PRISM AUC (SW1463_LARGE_INTESTINE): 0.1279
- Area under the curve (AUC) (SW1573_LUNG): 0.5448
- PRISM AUC (SW1573_LUNG): 0.4695
- Area under the curve (AUC) (SW1710_URINARY_TRACT): 0.8106
- Area under the curve (AUC) (SW1783_CENTRAL_NERVOUS_SYSTEM): 0.7369
- Area under the curve (AUC) (SW1990_PANCREAS): 0.7343
- Area under the curve (AUC) (T3M5_THYROID): 0.8637
- Area under the curve (AUC) (T3M10_LUNG): 0.8063
- Area under the curve (AUC) (T24_URINARY_TRACT): 0.7321
- Area under the curve (AUC) (T47D_BREAST): 0.8074
- Area under the curve (AUC) (T84_LARGE_INTESTINE): 0.5784
- Area under the curve (AUC) (T98G_CENTRAL_NERVOUS_SYSTEM): 0.7924
- Area under the curve (AUC) (TALL1_HAEMATOPOIETIC_AND_LYMPHOID_TISSUE): 0.5931
- Area under the curve (AUC) (TANOUE_HAEMATOPOIETIC_AND_LYMPHOID_TISSUE): 0.5869
- Area under the curve (AUC) (TASK1_CENTRAL_NERVOUS_SYSTEM): 0.8494
- Area under the curve (AUC) (TC32_BONE): 0.7126
- Area under the curve (AUC) (TC71_BONE): 0.7472
- Area under the curve (AUC) (TC106_BONE): 0.7909
- Area under the curve (AUC) (TC205_BONE): 0.8134
- Area under the curve (AUC) (TCCPAN2_PANCREAS): 0.603
- Area under the curve (AUC) (TCCSUP_URINARY_TRACT): 0.6748
- Area under the curve (AUC) (TE1_OESOPHAGUS): 0.6956
- Area under the curve (AUC) (TE4_OESOPHAGUS): 0.5647
- Area under the curve (AUC) (TE5_OESOPHAGUS): 0.5559
- Area under the curve (AUC) (TE6_OESOPHAGUS): 0.5629
- Area under the curve (AUC) (TE8_OESOPHAGUS): 0.5244
- Area under the curve (AUC) (TE10_OESOPHAGUS): 0.6223
- Area under the curve (AUC) (TE11_OESOPHAGUS): 0.7749
- Area under the curve (AUC) (TE14_OESOPHAGUS): 0.6224
- Area under the curve (AUC) (TE15_OESOPHAGUS): 0.2541
- Area under the curve (AUC) (TE617T_SOFT_TISSUE): 0.3935
- PRISM AUC (TEN_ENDOMETRIUM): 0.7622

— publication PMC11111408, “Concurrent inhibition of oncogenic and wild-type RAS-GTP for cancer therapy” (Nature, 2024)
